66 compounds from PubChem BioAssay AID1458 (National Center for Advancing Translational Sciences (NCATS), 2008) can be followed below.

Screen size: about 210,000 compounds; about 5,900 (2.8%) were called active. Another 5% or so got no clear call; they are omitted. The call rests on the fitted dose curve; in most records, active means well fitted activation curve with a large enough effect; inconclusive means small, poorly fitted or top-dose-only effect; inactive means no such curve, though single readings can be large or run the other way. This is a selection; strong and weak results do not stand in their true shares. Entries without a call were filed so in the source.
Potency means the concentration at half of the fitted maximal effect.

A short description of this assay: qHTS Assay for Enhancers of SMN2 Splice Variant Expression. Further: nearly all actives have a fitted effect of over 55% in size. On activity change, positive = activation: % of control where 0% means no effect. To be noted: HEK293 SMN2-luciferase splicing reporter, luminescence, 30-36 h; activity change, positive = activation: at 46.1 µM (top of the series) unless noted. The procedure, abridged: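 HEK293 cells carry an SMN2 […]–luciferase reporter in which exon 7 inclusion puts luciferase in frame. Cells were plated 10-12 h before compound addition, then incubated 30-36 h at 37C. ONE-Glo luminescence was read; sodium butyrate at 4.5 mM final served as control.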
As for `CCc1ccc(C(=O)COC(=O)C(Cc2c[nH]c3ccccc23)NC(=O)c2ccc(Br)cc2)cc1` (stereo unspecified), the activity change, positive = activation came out at 14.8%.

As to `CC(=O)OCC(=O)[C@@]1(O)[C@H](C)C[C@@H]2[C@H]3CCC4=CC(=O)C=C[C@]4(C)[C@]3(F)[C@@H](O)C[C@@]21C`, the “activity change, positive = activation” value is inactive: -1.6% [at 20.6 µM].

Regarding `CC1CN(S(=O)(=O)c2ccc(C(=O)NCCCn3ccnc3)cc2)CC(C)O1` (stereo unspecified), the “activity change, positive = activation” value is inactive: -49.8%.

On to `CCN(CC)CCNC(C(=O)Nc1cccc(C(C)=O)c1)c1ccccc1` (stereo unspecified), for which the activity change, positive = activation turned out to be 50%.

As for `COc1ccccc1N1CCN(C(=O)c2cn(-c3ccccc3)nc2-c2cccnc2)CC1`, the Potency was active: 22.4 µM.

Take `COc1cccc(-c2nc(CSCC(=O)NCCc3ccc(Cl)cc3)c(C)o2)c1`: the “activity change, positive = activation” value is inactive: -41.5%.

In the case of `COc1cc(/C=N/NC(=O)c2ccc3ccccc3c2)ccc1Oc1ccc([N+](=O)[O-])cn1`, the “activity change, positive = activation” value is inactive: -33.9%.

Turning to `Cn1cnnc1SCc1ccc(F)c2ccccc12`, the activity change, positive = activation worked out at 40.5%.

`CCn1c(SCC(=O)Nc2nccs2)nnc1-c1ccc(S(=O)(=O)N2CCCCC2)cc1`: the activity change, positive = activation is -47.4%.

For `CCN1CCN(c2ccc(NC(=O)c3cccc4ncccc34)cc2)CC1`, the activity change, positive = activation came to 35.1%.

Turning to `Cc1cc(C)n2c3c(c(C#N)c2n1)CCCC3`, the activity change, positive = activation was found to be 29.2%.

On to `CS(=O)(=O)N(CC(=O)N1CCOCC1)c1ccc2c(c1)OCO2`, for which the activity change, positive = activation was found to be 39.6%.

On to `CC(C)NC(=O)Cn1c(SCC(=O)N2CCc3ccccc3C2)nc2ccccc21`, for which the activity change, positive = activation is 45.1%.

Take `Cc1cccc(NC(=O)N(Cc2cc3cc(C)cc(C)c3[nH]c2=O)CC2COCCO2)c1` (stereo unspecified): the activity change, positive = activation was -35.4%.

`CCOC(=O)c1ccccc1NS(=O)(=O)c1ccccc1`: the activity change, positive = activation was determined as 41.7%.

For the compound `CCCOC(=O)c1ccc(NC(=O)Cc2csc(C)n2)cc1`, the activity change, positive = activation was -30.7%.

For `CCN1C(C(=O)c2ccccc2)=C(OC(=O)c2ccc(Cl)cc2)c2ccccc2S1(=O)=O`, the “activity change, positive = activation” value is inactive: -30.4%.

For `Fc1ccccc1CSc1nnnn1-c1ccc2c(c1)OCO2`, the activity change, positive = activation came to 40.3%.

As for `CC(C)NS(=O)(=O)c1ccc(OCC(=O)N2CCN(c3cccc(Cl)c3)CC2)cc1`, the “activity change, positive = activation” value is inactive: -62.8%.

Regarding `CCOC(=O)CCc1c(C)nc2cc(-c3ccc(F)cc3)[nH]n2c1=O`, the activity change, positive = activation worked out at 29.6%.

As for `Cc1ccc(OCC(=O)O/N=C(\N)c2ccccn2)cc1`, the Potency is active: 12.6 µM.

In the case of `COc1cc([N+](=O)[O-])ccc1N/C=C/C(=O)c1cccs1`, the Potency was active: 1.58 µM.

`Cc1ccc(C)c(OCCOCCN2CC(C)OC(C)C2)c1C` (stereo unspecified): the activity change, positive = activation was -41.3%.

Take `Cc1[nH]n(-c2cccc(Cl)c2)c(=O)c1/C=N/n1c(C)nc2ccccc2c1=O`: the activity change, positive = activation is -59.2%.

`Cc1ccc(/C=C/C(=O)N2CCc3ccccc32)o1`: the activity change, positive = activation came out at 314%.

For the compound `Cc1cccc(NC(c2cccc(Cl)c2)c2ccc3cccnc3c2O)n1` (stereo unspecified), the “activity change, positive = activation” value was inactive: -31.5%.

Regarding `CCOc1ccc(NC(=O)CSc2nnc3c(C)cc4ccccc4n23)cc1`, the activity change, positive = activation was 37.2%.

`CC(C)(C)C1CCc2[nH]nc(C(=O)O)c2C1` (stereo unspecified): the activity change, positive = activation was determined as 20.3%.

For the compound `COC(=O)c1cc2c(=O)n3cccc(C)c3nc2n(Cc2cccnc2)c1=N`, the activity change, positive = activation turned out to be 51.8%.

As to `Cc1ccc(N2CC(C(=O)Nc3nnc(C(C)C)s3)CC2=O)cc1` (stereo unspecified), the activity change, positive = activation is 34.5%.

In the case of `COc1ccc(NC(=O)NCCC2=CCCCC2)cc1`, the Potency was active: 12.6 µM.

Regarding `Cc1onc(-c2ccccc2)c1C(=O)c1c[nH]c(C(=O)NCc2ccccn2)c1`, the “activity change, positive = activation” value is inactive: -54.4%.

Turning to `CC(C)(C)c1ccc(OCc2ccc(C(=O)N/N=C3\CC4CC=CC34)cc2)cc1` (stereo unspecified), the activity change, positive = activation was -69.6%.

As for `CC(C)(C)C1CCc2onc(C(=O)Nc3cccc(O)c3)c2C1` (stereo unspecified), the activity change, positive = activation is -34%.

Take `Cc1ccc(C(=O)n2c3ccccc3c3ccccc32)cc1`: the activity change, positive = activation is -14.8%.

For the compound `Cc1ccc(C(=O)c2sc3nc4c(cc3c2N)CCC4)cc1`, the Potency is active: 7.94 µM.

Consider `CCOc1ccc(C(=O)N/N=C/c2cc([N+](=O)[O-])cs2)cc1`, for which the activity change, positive = activation is -20.2%.

In the case of `O=C(Cn1c(C(F)(F)F)nc2ccccc21)Nc1ccccc1C(=O)O`, the activity change, positive = activation amounted to 166%.

For the compound `Cc1cccc(C)c1NC(=O)N1CCN(c2nc3ccccc3s2)CC1`, the activity change, positive = activation was -80.3%.

As to `Cn1c(=NC(=O)c2ccccc2[N+](=O)[O-])sc2cc(S(C)(=O)=O)ccc21`, the Potency was active: 2.24 µM.

Take `CC(C)c1ccc(/C=N/NC(=O)c2ccccc2Cl)cc1`: the activity change, positive = activation is -45.5%.

In the case of `CC1=NN(C(=O)c2cccnc2)C(O)(C(F)(F)F)C1` (stereo unspecified), the activity change, positive = activation was -44.3%.

As to `O=C1C2=C(S[C@@H]3O[C@H](CO)[C@@H](O)[C@H](O)[C@H]3O2)C(=O)c2ccccc21`, the “activity change, positive = activation” value was inactive: -28%.

With `O=C(Nc1ccc2c(c1)OCCO2)c1ccccn1`, the Potency was active: 1.26 µM.

As to `COc1ccc(CN(C(=O)c2ccc(OCC(C)C)cc2)C2CCS(=O)(=O)C2)cc1` (stereo unspecified), the “activity change, positive = activation” value is inactive: -35.3%.

Take `O=S(=O)(c1ccccc1Cl)N1CCCC1c1nc(-c2ccccc2Cl)no1` (stereo unspecified): the activity change, positive = activation was -45.7%.

As to `CC(C)c1ccc(N=C2NN=C(c3cccs3)CS2)cc1`, the Potency is active: 12.6 µM.

Consider `O=C(NCc1ccco1)c1cc2n(n1)C(C(F)(F)F)CC(c1ccc(Br)cc1)N2` (stereo unspecified), for which the activity change, positive = activation is -21.3%.

For the compound `CC(C)=C1SC(N2CCN(c3ccc(Cl)cc3)CC2)=NC1=O`, the activity change, positive = activation was -55.3%.

`CC(Cc1ccccc1)NC(=O)c1ccc([N+](=O)[O-])cc1` (stereo unspecified): the Potency was active: 14.1 µM.

In the case of `COc1ccc(OCC(=O)c2c(O)c3ccccc3oc2=O)cc1`, the activity change, positive = activation is 47.2%.

For `COc1cccc(CNc2cnc3ccccc3c2)c1O`, the Potency was active: 3.55 µM.

As to `CC1(C)OC(=O)N(c2ccccc2)C12C=Cc1c(ccc3ccccc13)O2` (stereo unspecified), the “activity change, positive = activation” value was inactive: -30.5%.

As to `C=CCSc1nc2ccccc2n1C(=O)/C=C/c1cc(OC)c(OC)c(OC)c1`, the activity change, positive = activation is -81.7%.

As for `Cc1c(C#N)c(NC(=O)CCl)n(Cc2cccs2)c1C`, the “activity change, positive = activation” value was inactive: -103%.

For `CC(C)(C)C(=O)Nc1ccc(C(=O)OC2CCCCC2)cc1`, the Potency was active: 35.5 µM.

Regarding `C=CCNC(=S)N/N=C/c1ccc(-c2cc(Cl)ccc2Cl)o1`, the activity change, positive = activation is 35.1%.

On to `CCc1ccccc1NC(=O)CN(C)C(=O)Cn1ncc(Cl)c(Cl)c1=O`, for which the activity change, positive = activation is -105%.

Regarding `Clc1ccccc1Cn1c(/C=C/c2ccco2)nc2ccccc21`, the “activity change, positive = activation” value was inactive: -0.206%.

Regarding `C=CCc1cccc(/C=N/NC(=O)CNc2cccc3ccccc23)c1O`, the activity change, positive = activation was -77.9%.

Consider `COc1cc(/C=N/N2CCOCC2)ccc1OCc1ccc(Cl)cc1`, for which the Potency is active: 11.2 µM.

Consider `COc1ccc2nc(NC(C)=O)sc2c1`, for which the Potency is active: 14.1 µM.

As to `CCOc1ccc(N(Cc2ccccc2)C(=O)c2nc(S(C)(=O)=O)ncc2Cl)cc1`, the “activity change, positive = activation” value was inactive: -86.3%.

For the compound `Cc1nc(N2CCC(C)CC2)c2oc3ccccc3c2n1`, the “activity change, positive = activation” value is inactive: -42.8%.

As to `CC1CCN(c2nc3ccc(C(=O)N4CCN(c5ccccc5)CC4)cc3s2)CC1`, the “activity change, positive = activation” value was inactive: -60.9%.

In the case of `Cc1ccc(C(=O)N2c3ccc(F)cc3CCC2C)o1` (stereo unspecified), the activity change, positive = activation was 30.9%.
